How the values were obtained:
Intrinsic Clearance = conditions: mouse liver microsomes
Plasma Half-life = conditions: BALB/c, mouse, pH 7.4
in vitro = conditions: PAMPA, pH 7.4

Which results are given for `CCNC(=O)C[C@@H]1N=C(c2ccc(Cl)cc2)c2cc(OC)ccc2-n2c(C)nnc21` [I-BET762, reference compound]?
CL int (Intrinsic Clearance): 1.3 ml min^–1 g^–1; half-life at 50 µM (Plasma Half-life): > 3 h; Papp (in vitro): 2.5 ×10⁻⁶ cm/s

Source: article PMC5909127, “Optimization of a “bump-and-hole” approach to allele-selective BET bromodomain inhibition” (Chemical Science, 2018)
